{"source": "the supplement of paper PMC8728848", "test_in_all_cases": "glycan array binding signal (z-score within array); higher = stronger binding", "settings_in_all_cases": "glycan notation: IUPAC condensed, linker removed", "key": {"Gal(b1-4)Glc": {"molecular_target": "Gal(b1-4)Glc", "outline": "(§1)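 Glycan array data came from 3228 arrays in the Consortium for Functional Glycomics database, and only arrays with an available protein sequence were kept. Glycan names were put into IUPAC-condensed notation, and columns mapping to the same glycan were averaged. The binding signal is a within-array Z-score, averaged across arrays of one protein sequence run at different concentrations or buffers and across linkers. A negative Z-score can be read as non-binding.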"}, "Gal(b1-4)Glc6S": {"molecular_target": "Gal(b1-4)Glc6S", "outline": "as §1"}, "Gal(b1-4)GlcNAc": {"molecular_target": "Gal(b1-4)GlcNAc", "outline": "as §1"}, "[1]": {"molecular_target": "Gal(b1-4)GlcNAc(a1-6)Gal(b1-4)GlcNAc", "outline": "as §1"}, "Gal(b1-4)GlcNAc(b1-2)Man": {"molecular_target": "Gal(b1-4)GlcNAc(b1-2)Man", "outline": "as §1"}, "[2]": {"molecular_target": "Gal(b1-4)GlcNAc(b1-2)Man(a1-3)Man(b1-4)GlcNAc(b1-4)GlcNAc", "outline": "as §1"}, "[3]": {"molecular_target": "Gal(b1-4)GlcNAc(b1-2)Man(a1-3)[Gal(b1-4)GlcNAc(b1-2)Man(a1-6)]Man(b1-4)GlcNAc(b1-4)GlcNAc", "outline": "as §1"}, "[4]": {"molecular_target": "Gal(b1-4)GlcNAc(b1-2)Man(a1-3)[Gal(b1-4)GlcNAc(b1-2)Man(a1-6)]Man(b1-4)GlcNAc(b1-4)[Fuc(a1-6)]GlcNAc", "outline": "as §1"}, "[5]": {"molecular_target": "Gal(b1-4)GlcNAc(b1-2)Man(a1-3)[Gal(b1-4)GlcNAc(b1-2)Man(a1-6)][Gal(b1-4)GlcNAc(b1-4)]Man(b1-4)GlcNAc(b1-4)[Fuc(a1-6)]GlcNAc", "outline": "as §1"}, "[6]": {"molecular_target": "Gal(b1-4)GlcNAc(b1-2)Man(a1-3)[Gal(b1-4)GlcNAc(b1-2)Man(a1-6)][GlcNAc(b1-4)]Man(b1-4)GlcNAc(b1-4)[Fuc(a1-6)]GlcNAc", "outline": "as §1"}, "[7]": {"molecular_target": "Gal(b1-4)GlcNAc(b1-2)Man(a1-3)[GlcNAc(b1-2)Man(a1-6)]Man(b1-4)GlcNAc(b1-4)GlcNAc", "outline": "as §1"}, "[8]": {"molecular_target": "Gal(b1-4)GlcNAc(b1-2)Man(a1-3)[GlcNAc(b1-4)][Gal(b1-4)GlcNAc(b1-2)Man(a1-6)]Man(b1-4)GlcNAc(b1-4)GlcNAc", "outline": "as §1"}, "[9]": {"molecular_target": "Gal(b1-4)GlcNAc(b1-2)Man(a1-3)[Man(a1-6)]Man(b1-4)GlcNAc(b1-4)GlcNAc", "outline": "as §1"}, "[10]": {"molecular_target": "Gal(b1-4)GlcNAc(b1-2)Man(a1-6)Man(b1-4)GlcNAc(b1-4)GlcNAc", "outline": "as §1"}, "[11]": {"molecular_target": "Gal(b1-4)GlcNAc(b1-2)Man(a1-6)[GlcNAc(b1-2)Man(a1-3)]Man(b1-4)GlcNAc(b1-4)GlcNAc", "outline": "as §1"}, "[12]": {"molecular_target": "Gal(b1-4)GlcNAc(b1-2)Man(a1-6)[Man(a1-3)]Man(b1-4)GlcNAc(b1-4)GlcNAc", "outline": "as §1"}, "[13]": {"molecular_target": "Gal(b1-4)GlcNAc(b1-2)[Gal(b1-4)GlcNAc(b1-4)]Man(a1-3)[Gal(b1-4)GlcNAc(b1-2)Man(a1-6)]Man(b1-4)GlcNAc(b1-4)GlcNAc", "outline": "as §1"}, "[14]": {"molecular_target": "Gal(b1-4)GlcNAc(b1-2)[Gal(b1-4)GlcNAc(b1-4)]Man(a1-3)[Gal(b1-4)GlcNAc(b1-2)[Gal(b1-4)GlcNAc(b1-6)]Man(a1-6)]Man(b1-4)GlcNAc(b1-4)GlcNAc", "outline": "as §1"}, "[15]": {"molecular_target": "Gal(b1-4)GlcNAc(b1-2)[Gal(b1-4)GlcNAc(b1-4)]Man(a1-3)[GlcNAc(b1-4)][Gal(b1-4)GlcNAc(b1-2)Man(a1-6)]Man(b1-4)GlcNAc(b1-4)GlcNAc", "outline": "as §1"}, "[16]": {"molecular_target": "Gal(b1-4)GlcNAc(b1-2)[Gal(b1-4)GlcNAc(b1-4)]Man(a1-3)[GlcNAc(b1-4)][Gal(b1-4)GlcNAc(b1-2)[Gal(b1-4)GlcNAc(b1-6)]Man(a1-6)]Man(b1-4)GlcNAc(b1-4)GlcNAc", "outline": "as §1"}, "[17]": {"molecular_target": "Gal(b1-4)GlcNAc(b1-2)[Gal(b1-4)GlcNAc(b1-6)]Man(a1-6)[Gal(b1-4)GlcNAc(b1-2)Man(a1-3)]Man(b1-4)GlcNAc(b1-4)GlcNAc", "outline": "as §1"}, "[18]": {"molecular_target": "Gal(b1-4)GlcNAc(b1-2)[Gal(b1-4)GlcNAc(b1-6)]Man(a1-6)[Gal(b1-4)GlcNAc(b1-2)Man(a1-3)]Man(b1-4)GlcNAc(b1-4)[Fuc(a1-6)]GlcNAc", "outline": "as §1"}, "[19]": {"molecular_target": "Gal(b1-4)GlcNAc(b1-2)[Gal(b1-4)GlcNAc(b1-6)]Man(a1-6)[GlcNAc(b1-4)][Gal(b1-4)GlcNAc(b1-2)Man(a1-3)]Man(b1-4)GlcNAc(b1-4)GlcNAc", "outline": "as §1"}, "[20]": {"molecular_target": "Gal(b1-4)GlcNAc(b1-2)[Gal(b1-4)GlcNAc(b1-6)]Man(a1-6)[GlcNAc(b1-4)][Gal(b1-4)GlcNAc(b1-2)[Gal(b1-4)GlcNAc(b1-4)]Man(a1-3)]Man(b1-4)GlcNAc(b1-4)[Fuc(a1-6)]GlcNAc", "outline": "as §1"}, "[21]": {"molecular_target": "Gal(b1-4)GlcNAc(b1-3)Gal(b1-3)GalNAc", "outline": "as §1"}, "[22]": {"molecular_target": "Gal(b1-4)GlcNAc(b1-3)Gal(b1-3)GlcNAc", "outline": "as §1"}, "[23]": {"molecular_target": "Gal(b1-4)GlcNAc(b1-3)Gal(b1-4)Glc", "outline": "as §1"}, "[24]": {"molecular_target": "Gal(b1-4)GlcNAc(b1-3)Gal(b1-4)GlcNAc", "outline": "as §1"}, "[25]": {"molecular_target": "Gal(b1-4)GlcNAc(b1-3)Gal(b1-4)GlcNAc(b1-2)Man(a1-3)[Gal(b1-4)GlcNAc(b1-3)Gal(b1-4)GlcNAc(b1-2)Man(a1-6)]Man(b1-4)GlcNAc(b1-4)GlcNAc", "outline": "as §1"}, "[26]": {"molecular_target": "Gal(b1-4)GlcNAc(b1-3)Gal(b1-4)GlcNAc(b1-2)Man(a1-3)[Gal(b1-4)GlcNAc(b1-3)Gal(b1-4)GlcNAc(b1-2)Man(a1-6)]Man(b1-4)GlcNAc(b1-4)[Fuc(a1-6)]GlcNAc", "outline": "as §1"}}, "note": "The other results are listed elsewhere or left out."}
{"binder": "TAL6-6LysM (Trichoderma atroviride) (protein) AASKLGVPQPAQRDQVNCQLYAVQPNDNCIDISSKNNITYAQLLSWNPSLSSTCSNLASLNSSSICVSNPKGTFSISSNTVGATDIATTTAPVPSPTLDQTTSRCAKYYQVSDGDDCSHLTAQFAITLKDFIFLNSEVWQNCTNLELGYYYCVEPVGYISTYPGYLPTATTKPFNQTSATSLPYDGDPWARFSSNSSVIPIANGTRVDCYSYVYVKNLTENLFADCWNMASMYEITREELVLWNPSLGNDGSSGSNLSGAEASQVASSIAIPTTAPSSITTNLYTYPCTVAANISYCVALVSSTGALPTNTAPPGPHASGEISNCTAWFAPEAYDTCKSILDIFEMSFANFYKMNPSVGPDCSGLAVGTNYCVSTYPNGEDPNDDWDGDDSIPSISPTGIITPTPTQSGMVSNCNKFYDVHSNDGCSAIASSQHVDLSSLYKWNPAIKTDCSGLQASVYVCIGILTTSMSTTSKLPTTTSKPSTTSKPPTGITTPTPTQSGMVKNCNKFYDVHSGDGCSAIASSQKVNLSSFYLWNPAVKTDCSGLQASVFVCIGTLTTSMSTTTSKLPTTTSKPSTTSKPPTGIITPTPTQNGMVKNCNKFYDVHSGDGCSAIASSQKVNLSSFYLWNPAVKTDCSGLQASVFVCVGTATTTTAAGITTPTPTQSGMVSGCNKFYDVHAGDGCSAIASSQKIALSSLYKWNPAVKTDCSGLQASVYICIGVGNAAAARVTGAAASFLEQKLISEEDLNSAVDHHHHHH", "values": [{"measurement": "glycan array binding signal (z-score)", "setting": "Gal(b1-4)Glc", "value": 0.668}, {"measurement": "glycan array binding signal (z-score)", "setting": "Gal(b1-4)Glc6S", "value": -1.08}, {"measurement": "glycan array binding signal (z-score)", "setting": "Gal(b1-4)GlcNAc", "value": -0.744}, {"measurement": "glycan array binding signal (z-score)", "setting": "[1]", "value": -0.177}, {"measurement": "glycan array binding signal (z-score)", "setting": "Gal(b1-4)GlcNAc(b1-2)Man", "value": 0.067}, {"measurement": "glycan array binding signal (z-score)", "setting": "[2]", "value": -0.341}, {"measurement": "glycan array binding signal (z-score)", "setting": "[3]", "value": 0.479}, {"measurement": "glycan array binding signal (z-score)", "setting": "[4]", "value": -1.43}, {"measurement": "glycan array binding signal (z-score)", "setting": "[5]", "value": -1.24}, {"measurement": "glycan array binding signal (z-score)", "setting": "[6]", "value": 0.551}, {"measurement": "glycan array binding signal (z-score)", "setting": "[7]", "value": -0.218}, {"measurement": "glycan array binding signal (z-score)", "setting": "[8]", "value": 0.569}, {"measurement": "glycan array binding signal (z-score)", "setting": "[9]", "value": -1.59}, {"measurement": "glycan array binding signal (z-score)", "setting": "[10]", "value": -0.133}, {"measurement": "glycan array binding signal (z-score)", "setting": "[11]", "value": -0.648}, {"measurement": "glycan array binding signal (z-score)", "setting": "[12]", "value": 0.445}, {"measurement": "glycan array binding signal (z-score)", "setting": "[13]", "value": 0.34}, {"measurement": "glycan array binding signal (z-score)", "setting": "[14]", "value": -0.57}, {"measurement": "glycan array binding signal (z-score)", "setting": "[15]", "value": -1.11}, {"measurement": "glycan array binding signal (z-score)", "setting": "[16]", "value": 1.24}, {"measurement": "glycan array binding signal (z-score)", "setting": "[17]", "value": -0.31}, {"measurement": "glycan array binding signal (z-score)", "setting": "[18]", "value": -1.18}, {"measurement": "glycan array binding signal (z-score)", "setting": "[19]", "value": -0.994}, {"measurement": "glycan array binding signal (z-score)", "setting": "[20]", "value": 0.537}, {"measurement": "glycan array binding signal (z-score)", "setting": "[21]", "value": -0.573}, {"measurement": "glycan array binding signal (z-score)", "setting": "[22]", "value": -1.82}, {"measurement": "glycan array binding signal (z-score)", "setting": "[23]", "value": -0.432}, {"measurement": "glycan array binding signal (z-score)", "setting": "[24]", "value": -1.18}, {"measurement": "glycan array binding signal (z-score)", "setting": "[25]", "value": -0.047}, {"measurement": "glycan array binding signal (z-score)", "setting": "[26]", "value": 0.712}]}
